{"sequences": {"note": "Sequences of proteins named here, by UniProt entry; tags and fusion partners are left off. A change or cut given only in a name is not applied to a line headed by its entry.", "UniProt Q9D752": "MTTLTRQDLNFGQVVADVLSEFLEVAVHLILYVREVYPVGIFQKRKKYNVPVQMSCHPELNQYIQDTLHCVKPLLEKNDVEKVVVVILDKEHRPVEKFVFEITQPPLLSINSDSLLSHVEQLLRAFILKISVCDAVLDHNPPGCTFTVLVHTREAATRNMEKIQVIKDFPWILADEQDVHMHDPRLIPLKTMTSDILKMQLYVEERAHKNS"}, "source": "paper PMC10649693", "binders": {"B1": {"name": "Trip13 (protein, UniProt Q3UA06 1-432)", "chain": "MDEAVGDLKQALPCVAESPAVHVEVLQRSGSTAKKEDIKSSVYRLLNRHNIVFGDYVWTEFDDPFLSRNVQSVSIVDTELKAKDPQPIDLSACTIALHIFQLNEEGPSSENLDEETENIIAASHWVLPAAEFHGLWDSLVYDVEVKSHLLDYVMTTVLFSDKNVDSNLITWNRVVLLHGPPGTGKTSLCKALAQKLTIRLSSRYRYGQLIEINSHSLFSKWFSESGKLVTKMFQKIQDLIDDKEALVFVLIDEVESLTAARNACRAGAEPSDAIRVVNAVLTQIDQIKRHSNVVILTTSNITEKIDVAFVDRADIKQYIGPPSAAAIFKIYLSCLEELMKCQIIYPRQQLLTLRELEMIGFIENNVSKLSLLLSEISRKSEGLSGRVLRKLPFLAHALYIQAPSVTIEGFLQALSLAVDKQFEEKKKLSAYV"}}, "test_in_all_cases": "co-IP; anti-Rev7 (10 ug) covalently attached to magnetic beads, incubated with 1 mg of protein extract of the indicated KP cell line for 2 h at room temperature; eluates blotted for Ran, Trip13 and Rev7; IgG control", "key": {"[1]": {"molecular_target": "Rev7 (endogenous, wild-type KP cells) (mouse (endogenous in KP cells)) (UniProt Q9D752)"}, "[2]": {"molecular_target": "Rev7^K44A/R124A/A135D (mouse) (UniProt Q9D752)"}, "[3]": {"molecular_target": "wild-type mouse Rev7 expressed in Rev7^-/- KP cells (mouse) (UniProt Q9D752)"}}, "note": "These are yes or no findings as the source states them, for the method shown. In cells and extracts the contact can be indirect. Some entries that bind do so weakly or less than the wild type.", "data": [{"binder": "B1", "values": [{"measurement": "binding", "setting": "[1]", "value": "binds"}, {"measurement": "binding", "setting": "[2]", "value": "no binding"}, {"measurement": "binding", "setting": "[3]", "value": "binds"}]}]}
